The values that follow come from PMC9627524.

For at least one entry, the source does not settle the construct or the ends of the probe. For part of these data: Negatives hold for the conditions tested. For part of these data: At least one verdict was read from the data and is not stated in words by the source.

Series [1] deals with TcMYC2 (Tanacetum cinerariifolium). The series is described as follows: EMSA. As to conditions: EMSA with 10 uM FAM-labeled probe, 50-fold cold competitor; recombinant protein; protein details: 6xHis (pET6HN-C, text says N-terminal frame).
The test system is the same in series [2]. The series is described as follows: competition with a labelled probe. As to conditions: EMSA with 10 uM FAM-labeled probe, 50-fold cold competitor, recombinant protein, protein details: 6xHis (pET6HN-C, text says N-terminal frame), label: none (cold competitor).

On to “CAACTAATCACACACCGCCACGTGTCCACCGTCCACCTACT (double strand) [TcAOC promoter G-box probe]”, for which the binding result in series [1] is on record as “binds”.

Take “TTTGAAGGTCCTGTATGTAAAGTGCTAAGTGTTAAGTCAATGATTATAT (double strand) [TcCHS promoter mutant probe]”: the binding result in series [2] (50-fold cold mutant vs FAM-N1, shifted band recovered) was “no binding”.

Regarding “TTTGAAGGCAAGTGATGTAAAGTGCTAAGTGTTAAGTCAATGATTATAT (double strand) [TcCHS promoter E-box probe]”, the binding result in series [1] is “binds”.

With “CCTGACAGTTGCTATTTAGTGCTGTCTACTTGTTTAGTTGTGGAGCAAATGACT (double strand) [TcGLIP promoter E-box probe]”, the binding result in series [1] is “binds”.

As for “CAACTAATCACACACCGCTCTTCTTCCACCGTCCACCTACT (double strand) [TcAOC promoter mutant probe]”, in series [2] (50-fold cold mutant vs FAM-N3, shifted band recovered), the binding result is “no binding”.

Consider “CCTGATCTCGTCTATTTAGTGCTGTCTACTTGTTTAGTTGTGGAGTCCCGTACT (double strand) [TcGLIP promoter mutant probe]”, for which the binding result in series [2] (50-fold cold mutant vs FAM-N5, shifted band recovered) is “no binding”.
